{
  "source": "patent US8501977B2",
  "about": "“Platinum complex and pharmaceutical composition containing the same” (Unitech Co., Ltd., priority 2008, dated 2013)",
  "test_system": "tumor cells",
  "experiment": "MTS cell proliferation test, all cancer cells of Embodiment 8",
  "format": "cell-based, human",
  "experimental": "Respectively, the S medicine test solution was prepared by dissolving the ((S,S,S) cis,cis-spiro[4,4]nonane-1,6-diamine)oxalatoplatinum(II) complex (compound 2; hereinafter, it is described as S medicine) into the dimethylsulfoxide (DMSO) with the concentration of 10 mg/ml and the R medicine test solution was prepared by dissolving the ((R,R,R)cis,cis-spiro[4,4]nonane-1,6-diamine) oxalatoplatinum(II) complex (compound 3; hereinafter, it is described as R medicine) into the dimethylsulfoxide (DMSO) with the concentration of 10 mg/ml.\nThe test was performed by using A549 (human lung cancer cell), LU65A (human lung cancer cell), RERF-LC-MA (human lung cancer cell), LU99 (human lung cancer cell), H460 (human lung cancer cell), HCT116 (human colon cancer cell), HT-29 (human colon cancer cell), MKN-45 (human gastric cancer cell), MKN-1 (human gastric cancer cell), U937 (human lymphoma cell), KP-1N (human pancreas cancer cell) and B2452 (human mesotheliama cell) as the cancer cell. […]\nThe cell proliferation after the medicine addition was measured on the 3rd day from the 1st day after the medicine addition by the MTS method (kit for cell proliferation test manufactured by Promega Company).\nThe inhibition rate (%) of the cell proliferation was obtained from the measured MTS value by the following formula. […]",
  "note": "Some of these results come from one statement about several compounds together. At least one compound was matched to its structure with a doubt left.",
  "data": [
    {"smiles": "NC1CCCC12CCCC2N.O=C1[O][Pt][O]C1=O", "note": "[R medicine, ((R,R,R)cis,cis-spiro[4,4]nonane-1,6-diamine) oxalatoplatinum(II) complex]", "values": [
      {"measurement": "inhibition rate of the cell proliferation", "setting": "all cells", "result": "≥ 50", "unit": "%"}
    ]},
    {"smiles": "NC1CCCC12CCCC2N.O=C1[O][Pt][O]C1=O", "note": "[S medicine, ((S,S,S) cis,cis-spiro[4,4]nonane-1,6-diamine)oxalatoplatinum(II) complex]", "values": [
      {"measurement": "inhibition rate of the cell proliferation", "setting": "all cells except the H2452 cell", "result": "≥ 50", "unit": "%"}
    ]}
  ]
}
